# Assay results: the supplement of paper PMC4635364
# Where a name gives a salt, the structure may show the parent alone. This is one part of the list. Repeats in this data set agree poorly, so a single value says little.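 ReNCell VM, a human fetal ventral-midbrain neural progenitor line, was differentiated without mitogens. Blinded raters scored images stained for doublecortin (early neurons) or tyrosine hydroxylase (dopaminergic neurons) against untreated wells (0 = no change). Scores were averaged across repeats and both raters, and compounds averaging 2 or more were selected as hits for retesting.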
# What was measured:
# ReNCell VM [1] = experiment: neuronal differentiation score (DCX+ cell fraction vs untreated, manual image score) (score (-3 to 3)); higher = more neuronal differentiation; conditions: 2 uM, 2 weeks
# ReNCell VM [2] = experiment: dopaminergic neuron differentiation score (TH+ cell fraction vs untreated, manual image score) (score (0 to 3)); higher = more TH+ dopaminergic neuron differentiation; conditions: 2 uM, 4 weeks, BDNF 10 ng/ml + GDNF 10 ng/ml
structure (smiles),measurement,setting,value
NS(=O)(=O)c1ccc(C(=O)O)cc1,neuronal differentiation score,ReNCell VM [1]; library: Spectrum,inactive: 0
same,dopaminergic neuron differentiation score,ReNCell VM [2]; library: Spectrum,inactive: 0
CC(C)c1ccc2c(c1)CC[C@H]1[C@](C)(CN)CCC[C@]21C [Lylamine hydrochloride],neuronal differentiation score,ReNCell VM [1]; library: Tocriscreen,inactive: 0
same,dopaminergic neuron differentiation score,ReNCell VM [2]; library: Tocriscreen,inactive: 0
C#C[C@]1(O)CC[C@H]2[C@@H]3CCC4=CCCC[C@@H]4[C@H]3CC[C@@]21C [Lynestrenol],neuronal differentiation score,ReNCell VM [1]; library: Prestwick,inactive: 0
same,dopaminergic neuron differentiation score,ReNCell VM [2]; library: Prestwick,inactive: 0
C[C@@]12C[C@@]3(O)O[C@@H](O1)[C@]1(COC(=O)c4ccccc4)[C@H]3C[C@@]12O[C@@H]1O[C@H](CO)[C@@H](O)[C@H](O)[C@H]1O,neuronal differentiation score,ReNCell VM [1]; library: Spectrum,inactive: 0
same,dopaminergic neuron differentiation score,ReNCell VM [2]; library: Spectrum,inactive: 0
CC(=O)NCCCS(=O)(=O)O [Acamprosate calcium],neuronal differentiation score,ReNCell VM [1]; library: Prestwick,inactive: 0
same,dopaminergic neuron differentiation score,ReNCell VM [2]; library: Prestwick,inactive: 0
O=C1C(CC[S+]([O-])c2ccccc2)C(=O)N(c2ccccc2)N1c1ccccc1 (stereo not drawn),neuronal differentiation score,ReNCell VM [1]; library: Spectrum,inactive: 0
same,dopaminergic neuron differentiation score,ReNCell VM [2]; library: Spectrum,inactive: 0
CC(C)c1ccc2c(c1)c(SC(C)(C)C)c(CC(C)(C)C(=O)O)n2Cc1ccc(Cl)cc1,neuronal differentiation score,ReNCell VM [1]; library: LOPAC,inactive: 0
same,dopaminergic neuron differentiation score,ReNCell VM [2]; library: LOPAC,inactive: 0
C[C@@H]1CN(c2c(F)c(F)c3c(=O)c(C(=O)O)cn(C4CC4)c3c2F)C[C@H](C)N1,neuronal differentiation score,ReNCell VM [1]; library: Spectrum,inactive: 0
same,dopaminergic neuron differentiation score,ReNCell VM [2]; library: Spectrum,inactive: 0
COc1ccc2c(c1)OCC(Cc1ccc(OC)c(O)c1)C2=O (stereo not drawn),neuronal differentiation score,ReNCell VM [1]; library: Spectrum,inactive: 0
same,dopaminergic neuron differentiation score,ReNCell VM [2]; library: Spectrum,inactive: 0
COc1ccc2cc([C@H](C)C(=O)O)ccc2c1 [Naproxen],neuronal differentiation score,ReNCell VM [1]; library: Prestwick,inactive: 0
same,dopaminergic neuron differentiation score,ReNCell VM [2]; library: Prestwick,inactive: 0
COc1cc(NS(=O)(=O)c2ccc(N)cc2)ncn1 [Sulfamonomethoxine],neuronal differentiation score,ReNCell VM [1]; library: Prestwick,inactive: 0
same,dopaminergic neuron differentiation score,ReNCell VM [2]; library: Prestwick,inactive: 0
CCS(=O)(=O)N1CCC[C@@H]2CN3CCc4cc(OC)ccc4[C@@H]3C[C@@H]21,neuronal differentiation score,ReNCell VM [1]; library: Tocriscreen,inactive: 0
same,dopaminergic neuron differentiation score,ReNCell VM [2]; library: Tocriscreen,inactive: 0
CC1CC(OC(=O)c2ccccc2O)CC(C)(C)C1 (stereo not drawn) [Homosalate],neuronal differentiation score,ReNCell VM [1]; library: Prestwick,inactive: 1
same,dopaminergic neuron differentiation score,ReNCell VM [2]; library: Prestwick,inactive: 0
Nc1ccn([C@@H]2O[C@H](CO)[C@@H](O)[C@H]2O)c(=O)n1,neuronal differentiation score,ReNCell VM [1]; library: Spectrum,inactive: 0
same,dopaminergic neuron differentiation score,ReNCell VM [2]; library: Spectrum,inactive: 0
COc1cc2c(cc1OC)C(C=Cc1ccc(OC)c(OC)c1OC)=NCC2,neuronal differentiation score,ReNCell VM [1]; library: Natural,inactive: 0
same,dopaminergic neuron differentiation score,ReNCell VM [2]; library: Natural,inactive: 0
COc1ccc2cc1Oc1ccc(cc1)C[C@H]1c3cc(c(OC)cc3CCN1C)Oc1c(OC)c(OC)cc3c1[C@H](C2)N(C)CC3 [Tetrandrine],neuronal differentiation score,ReNCell VM [1]; library: Phytochemical,inactive: 0
same,dopaminergic neuron differentiation score,ReNCell VM [2]; library: Phytochemical,inactive: 0
O=c1[nH]c(=O)n([C@H]2C[C@H](O)[C@@H](CO)O2)cc1F,neuronal differentiation score,ReNCell VM [1]; library: Spectrum,inactive: 0
same,dopaminergic neuron differentiation score,ReNCell VM [2]; library: Spectrum,inactive: 0
Cc1cccc(N(C)C(=S)Oc2ccc3ccccc3c2)c1 [Tolnaftate],neuronal differentiation score,ReNCell VM [1]; library: Prestwick,inactive: 0
same,dopaminergic neuron differentiation score,ReNCell VM [2]; library: Prestwick,inactive: 0
CC(C)[C@H]1CC[C@H](C(=O)N[C@H](Cc2ccccc2)C(=O)O)CC1,neuronal differentiation score,ReNCell VM [1]; library: Spectrum,inactive: 0
same,dopaminergic neuron differentiation score,ReNCell VM [2]; library: Spectrum,inactive: 0
COc1cccc(/C=N/N=C/c2cccc(OC)c2)c1,neuronal differentiation score,ReNCell VM [1]; library: Tocriscreen,inactive: 0
same,dopaminergic neuron differentiation score,ReNCell VM [2]; library: Tocriscreen,inactive: 0
COc1c2ccoc2c(OC)c2oc(=O)ccc12,neuronal differentiation score,ReNCell VM [1]; library: Spectrum,inactive: -1
same,dopaminergic neuron differentiation score,ReNCell VM [2]; library: Spectrum,inactive: 0
COc1ccccc1O,neuronal differentiation score,ReNCell VM [1]; library: Spectrum,inactive: 0
same,dopaminergic neuron differentiation score,ReNCell VM [2]; library: Spectrum,inactive: 0
CCNC(=O)CC[C@H](N)C(=O)O,neuronal differentiation score,ReNCell VM [1]; library: Spectrum,inactive: 0
same,dopaminergic neuron differentiation score,ReNCell VM [2]; library: Spectrum,inactive: 0
CC(N)(Cc1ccc(O)c(O)c1)C(=O)O [L-(-)- à-Methyldopa],neuronal differentiation score,ReNCell VM [1]; library: Tocriscreen,inactive: 0
same,dopaminergic neuron differentiation score,ReNCell VM [2]; library: Tocriscreen,inactive: 0
CCN(CC)C(C)CN1c2ccccc2Sc2ccccc21 (stereo not drawn) [Ethopropazine hydrochloride],neuronal differentiation score,ReNCell VM [1]; library: Prestwick,inactive: 0
same,dopaminergic neuron differentiation score,ReNCell VM [2]; library: Prestwick,inactive: 0
CCN(CC)C(=O)c1ccc(O)c(OC)c1 [Vanillic acid diethylamide],neuronal differentiation score,ReNCell VM [1]; library: LOPAC,inactive: -1
same,dopaminergic neuron differentiation score,ReNCell VM [2]; library: LOPAC,inactive: 0
O=C(O)CN(CCN(CC(=O)O)CC(=O)O)CCN(CC(=O)O)CC(=O)O [Diethylenetriaminepentaacetic acid],neuronal differentiation score,ReNCell VM [1]; library: LOPAC,inactive: 0
same,dopaminergic neuron differentiation score,ReNCell VM [2]; library: LOPAC,inactive: 0
CN(C)[C@@H]1C(O)=C(C(N)=O)C(=O)[C@@]2(O)C(O)=C3C(=O)c4c(O)cccc4[C@@](C)(O)[C@H]3[C@H](O)[C@@H]12 [Oxytetracycline dihydrate],neuronal differentiation score,ReNCell VM [1]; library: Prestwick,inactive: 0
same,dopaminergic neuron differentiation score,ReNCell VM [2]; library: Prestwick,inactive: 0
Cc1occc(=O)c1O,neuronal differentiation score,ReNCell VM [1]; library: Spectrum,inactive: 0
same,dopaminergic neuron differentiation score,ReNCell VM [2]; library: Spectrum,inactive: 0
Cc1cc(O)c(C=O)c2c1C(=O)Oc1c(C)c(O)c3c(c1O2)C(O)OC3=O (stereo not drawn),neuronal differentiation score,ReNCell VM [1]; library: Spectrum,inactive: 0
same,dopaminergic neuron differentiation score,ReNCell VM [2]; library: Spectrum,inactive: 0
CC(C)C1=CC2=CC[C@@H]3[C@](C)(CCC[C@@]3(C)C(=O)O)[C@H]2CC1 [abietic acid],neuronal differentiation score,ReNCell VM [1]; library: Natural,inactive: 0
same,dopaminergic neuron differentiation score,ReNCell VM [2]; library: Natural,inactive: 0
"CC1(C)CCC=[N+]1[O-] [5,5-Dimethyl-1-pyrroline-N-oxide]",neuronal differentiation score,ReNCell VM [1]; library: LOPAC,active: 3
same,dopaminergic neuron differentiation score,ReNCell VM [2]; library: LOPAC,inactive: 0
CN(Cc1cnc2nc(N)nc(N)c2n1)c1ccc(C(=O)N[C@@H](CCC(=O)O)C(=O)O)cc1 [Methotrexate hydrate],neuronal differentiation score,ReNCell VM [1]; library: LOPAC,inactive: 0
same,dopaminergic neuron differentiation score,ReNCell VM [2]; library: LOPAC,inactive: 0
CC(=O)CC(c1ccc([N+](=O)[O-])cc1)c1c(O)c2ccccc2oc1=O (stereo not drawn) [Acenocoumarol],neuronal differentiation score,ReNCell VM [1]; library: Prestwick,inactive: 0
same,dopaminergic neuron differentiation score,ReNCell VM [2]; library: Prestwick,inactive: 1

# For reference, part of the list above:
structure (smiles),measurement,setting,value
C[C@@H]1CN(c2c(F)c(F)c3c(=O)c(C(=O)O)cn(C4CC4)c3c2F)C[C@H](C)N1,dopaminergic neuron differentiation score,ReNCell VM [2]; library: Spectrum,inactive: 0
COc1ccc2c(c1)OCC(Cc1ccc(OC)c(O)c1)C2=O (stereo not drawn),neuronal differentiation score,ReNCell VM [1]; library: Spectrum,inactive: 0
same,dopaminergic neuron differentiation score,ReNCell VM [2]; library: Spectrum,inactive: 0
COc1ccc2cc([C@H](C)C(=O)O)ccc2c1 [Naproxen],neuronal differentiation score,ReNCell VM [1]; library: Prestwick,inactive: 0
